From PubChem BioAssay AID504834 (National Center for Advancing Translational Sciences (NCATS), 2011)
Hit rate of the full screen: of about 320,000 compounds, about 22,000 (6.9%) were called active. Inconclusive means that the source gave no clear call. Such entries were picked first, then a sample of the others. Calls come from the whole dose curve; as a rule, active = well fitted inhibition curve with a large enough effect; inconclusive = small, poorly fitted or top-dose-only effect, or another doubt; inactive = no such curve, though single readings can be large or run the other way. A potency beside an inconclusive call is a rough fit, not a confirmed value.

Test: Primary qHTS for delayed death inhibitors of the malarial parasite plastid, 96 hour incubation
Conditions: P. falciparum luciferase reporter growth; series mostly up to 28.7 µM; activity change, negative = inhibition: at the top concentration
In short: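 Erythrocytes infected with luciferase-expressing P. falciparum were dispensed at 2% hematocrit and 0.05% parasitemia (final), then incubated with compounds 96 hours at 37 C in 5% CO2. Luminescence after detection reagent addition reported growth.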
% is set by controls: 0 for no effect and ±100 for the full control effect; potency is the fitted concentration of half-maximal effect.

| SMILES | Potency | activity change, negative = inhibition |
| --- | --- | --- |
| O=C(Nc1nc(-c2ccco2)c(-c2ccco2)s1)C1CCC1 | inconclusive: 13.1 µM [inhibitor, single point] |  |
| CN1C(=O)C(O)(CC(=O)/C=C/c2ccco2)c2cc(Br)ccc21 (centres undefined) | inconclusive: 10.4 µM [inhibitor, single point] |  |
| COc1cc(O)c(/C=N/NC(=O)c2ccncc2)c(OC)c1[N+](=O)[O-] | inconclusive: 2.94 µM [inhibitor, single point] |  |
| CC1(C)CC(NC(=O)c2ccc(Cl)c(S(=O)(=O)N(Cc3ccccc3)c3ccccc3)c2)CC(C)(C)N1 | active: 7.38 µM |  |
| COc1ccc(-n2c(O)c(C(C)=NCc3ccco3)c(=O)[nH]c2=O)cc1 | inconclusive: 18.5 µM [inhibitor, single point] |  |
| CC1CCN(S(=O)(=O)c2ccc(NC(=O)CSc3nnnn3C)cc2)CC1 | inconclusive: 14.7 µM [inhibitor, partial curve] |  |
| O=C(/C=C/c1ccncc1)c1ccc2c(c1)OCCO2 | inconclusive: 11.7 µM [inhibitor, single point] |  |
| O=C(Nc1cccnc1)c1cccc(-c2cc3ccccc3oc2=O)c1 | inconclusive: 1.04 µM [inhibitor, partial curve, poor fit] |  |
| Cc1cccc(OCC(=O)N2CCN(c3nnc(-c4ccccc4)c4ccccc34)CC2)c1 | inconclusive: 6.57 µM [inhibitor, partial curve, poor fit] |  |
| CCc1nc(N)c(C#N)c(-c2ccncc2)c1C | inconclusive: 3.7 µM [inhibitor, partial curve] |  |
| Fc1ccc(-c2[nH]ncc2CN(CC2CCC2)CC2CCCO2)c(F)c1 (centres undefined) | inconclusive: 18.5 µM [inhibitor, single point] |  |
| CN1C(C(=O)NCc2ccco2)CC2Cn3c(nc4ccccc43)C21 (centres undefined) |  | inactive: 51.3% |
| O=C(CCSc1ccccc1)NCCSc1ccccn1 | inconclusive: 18.5 µM [inhibitor, single point] |  |
| CCC(C)(c1nnnn1-c1c(C)cccc1C)N(N=O)c1cccc(C(F)(F)F)c1 (centres undefined) | inconclusive: 8.28 µM [inhibitor, partial curve, poor fit] |  |
| O=C(CSc1ncccn1)Nc1ccc2[nH]c(=O)[nH]c2c1 |  | inactive: 11.3% |
| Fc1ccc2[nH]c3c(N4CCN(c5ccccc5)CC4)ncnc3c2c1 | active: 11.7 µM |  |
| Cc1ccc(-c2nc(C#N)c(N3CCC(C(N)=O)CC3)o2)cc1 | inconclusive: 13.1 µM [inhibitor, single point] |  |
| O=C(Nc1ccccn1)C1CCN(C(=O)Nc2ccccc2)CC1 |  | inactive: 5.27% |
| CCOc1ccc(NC(=O)CNC(=O)c2nn(-c3ccc(OC)c(OC)c3)c(=O)c3ccccc23)cc1 | inconclusive: 20.8 µM [inhibitor, partial curve, poor fit] |  |

A few values from above:
Potency with `CCC(C)(c1nnnn1-c1c(C)cccc1C)N(N=O)c1cccc(C(F)(F)F)c1` (centres undefined) reads inconclusive: 8.28 µM [inhibitor, partial curve, poor fit]
Potency with `O=C(CCSc1ccccc1)NCCSc1ccccn1` reads inconclusive: 18.5 µM [inhibitor, single point]
